Data as given in patent US10640547B2, “Immunotherapy against melanoma and other cancers” (IMMATICS BIOTECHNOLOGIES GMBH, priority 2016, dated 2020).
For some assays here: Expression values are those of the mRNA of the gene that encodes the peptide; a gene is named only where it was looked up.

What was measured:
[1] = system: HLA molecules of melanoma, other tumor and normal tissue samples; test: Identification and relative quantitation of tumor associated peptides presented on the cell surface (HLA immunoprecipitation, label-free LC-MS); design: species or system human; key to Peptide Presentation (presentation score): very highly over-presented on tumors compared to a panel of normal tissues (+++); highly over-presented on tumors compared to a panel of normal tissues (++); over-presented on tumors compared to a panel of normal tissues (+); conditions: for Peptide Presentation (presentation score): over-presentation on tumors compared to a panel of normal tissues; for Additional Entities (additional tumor types on which the peptide was found) / relevant organs/diseases (additional tumor types on which the peptide was found): over-presented on more than 5% of the measured tumor samples, or presented on more than 5% with ratio of geometric means tumor vs normal tissues larger than 3; for over-presentation in melanoma versus normal tissues: 18 melanoma vs panel of normal tissues, FIG. 1A-1C; for over-presentation in different cancer tissues: HLA-A*02 positive normal and tumor samples, FIG. 1E-1J
[2] = system: mRNA of source genes in melanoma and normal tissues; test: Expression profiling of genes encoding the peptides (RNAseq); design: species or system human; key: very highly over-expressed in tumors compared to a panel of normal tissues (+++); highly over-expressed in tumors compared to a panel of normal tissues (++); over-expressed in tumors compared to a panel of normal tissues (+); conditions: over-expression in tumors compared to a panel of normal tissues

Question: For “12: peptide found in P2RX7 (gene looked up) (RLDDKTTNV; listed as Homo sapiens) [compound 12]”, which “Peptide Presentation (presentation score)” value (from here on “Peptide Presentation”) [1] is on record?
Answer: ++

Question: What about the “GeneExpression (expression score of source gene)” value (shortened to “GeneExpression”) [2] of the same substance?
Answer: ++

Question: What does the source list for “38: peptide found in PBK (gene looked up) (KLGFGTGVNVYL; listed as Homo sapiens) [compound 38]”?
Answer: Peptide Presentation (presentation score) [1]: +++; GeneExpression (expression score of source gene) [2]: +++

Question: Which “Peptide Presentation” value [1] does the source give for “42: peptide found in IL4I1 (gene looked up) (VLKADVVLL; listed as Homo sapiens) [compound 42]” here?
Answer: +++

Question: What about the “GeneExpression” value [2] of the same substance?
Answer: +++

Question: Which results are given for “50: peptide found in CCL8 (gene looked up) (HLDQIFQNL; listed as Homo sapiens) [compound 50]”?
Answer: Peptide Presentation (presentation score) [1]: +++; GeneExpression (expression score of source gene) [2]: ++

Question: How did the “Peptide Presentation” value [1] turn out when “55: peptide found in CDC45 (gene looked up) (NLDKLYHGL; listed as Homo sapiens) [compound 55]” was run?
Answer: +++

Question: What about the “GeneExpression” value [2] of the same substance?
Answer: +

Question: For “126: peptide found in GPNMB (gene looked up) (SLIDFVVTC; listed as Homo sapiens) [compound 126]”, which “Peptide Presentation” value [1] is on record?
Answer: +

Question: And the “Additional Entities (additional tumor types on which the peptide was found)” value (“Additional Entities” for short) [1]?
Answer: NSCLC, HCC, HNSCC

Question: What about the “relevant organs/diseases (additional tumor types on which the peptide was found)” value (shortened to “relevant organs/diseases”) [1] of the same substance?
Answer: RCC, PC, NHL, OC, Uterine Cancer

Question: What about the “GeneExpression” value [2] of the same substance?
Answer: ++

Question: What does the source list for “230 (HLDEARTLL; listed as Homo sapiens) [compound 230]”?
Answer: Peptide Presentation (presentation score) [1]: +; relevant organs/diseases (additional tumor types on which the peptide was found) [1]: CLL, NHL, AML, Uterine Cancer

Question: With “231 (KMVGDVTGA; listed as Homo sapiens) [compound 231]” as the substance, how does the “Peptide Presentation” value [1] read?
Answer: +

Question: For “232 (KILPDLNTV; listed as Homo sapiens) [compound 232]”, which “Additional Entities” value [1] is on record?
Answer: HCC

Question: And the “relevant organs/diseases” value [1]?
Answer: Brain Cancer, Urinary bladder cancer

Question: How did the “Peptide Presentation” value [1] turn out when “233 (QLYNQIIKL; listed as Homo sapiens) [compound 233]” was run?
Answer: +

Question: And the “relevant organs/diseases” value [1]?
Answer: CLL, NHL

Question: “234 (KVPEIEVTV; listed as Homo sapiens) [compound 234]” was tested. Which “Additional Entities” value [1] did it give?
Answer: GC, CLL, BRCA, OC, Gallbladder Cancer, Bile Duct Cancer

Question: What about the “relevant organs/diseases” value [1] of the same substance?
Answer: NHL, AML, Uterine Cancer

Question: For “235 (ALADLQEAV; listed as Homo sapiens) [compound 235]”, which “Peptide Presentation” value [1] is on record?
Answer: ++

Question: What about the “relevant organs/diseases” value [1] of the same substance?
Answer: Brain Cancer, PrC, Uterine Cancer

Question: Which results are given for “236 (GLDSGFHSV; listed as Homo sapiens) [compound 236]”?
Answer: Additional Entities (additional tumor types on which the peptide was found) [1]: CLL, AML; relevant organs/diseases (additional tumor types on which the peptide was found) [1]: PC, NHL, BRCA

Question: “237 (VLYNESLQL; listed as Homo sapiens) [compound 237]” was tested. Which “Additional Entities” value [1] did it give?
Answer: CLL, AML

Question: And the “relevant organs/diseases” value [1]?
Answer: NHL

Question: Which “over-presentation in melanoma versus normal tissues” value [1] does the source give for “SEQ ID NO.:3 (VLFKDPVSV; listed as Homo sapiens)” here?
Answer: over-presentation

Question: “SEQ ID NO.: 1 (FLDVKELML; listed as Homo sapiens)” was tested. Which “over-presentation in melanoma versus normal tissues” value [1] did it give?
Answer: over-presentation

Question: For “SEQ ID NO.: 13 (IQSETTVTV; listed as Homo sapiens)”, which “over-presentation in melanoma versus normal tissues” value [1] is on record?
Answer: over-presentation

Question: “SEQ ID NO.: 19 (VLAVLGAVVAV; listed as Homo sapiens)” was tested. Which “over-presentation in different cancer tissues” value [1] did it give?
Answer: over-presentation

Question: “SEQ ID NO.: 24 (SLVAILHLL; listed as Homo sapiens)” was tested. Which “over-presentation in different cancer tissues” value [1] did it give?
Answer: over-presentation

Question: “SEQ ID NO.: 118 (TMIEICEKL; listed as Homo sapiens)” was tested. Which “over-presentation in different cancer tissues” value [1] did it give?
Answer: over-presentation

Question: Which “over-presentation in different cancer tissues” value [1] does the source give for “SEQ ID NO.: 120 (QLMEGKVVL; listed as Homo sapiens)” here?
Answer: over-presentation

Question: With “SEQ ID NO.: 151 (FLGEPASYLYL; listed as Homo sapiens)” as the substance, how does the “over-presentation in different cancer tissues” value [1] read?
Answer: over-presentation

Question: How did the “over-presentation in different cancer tissues” value [1] turn out when “SEQ ID NO.: 209 (SILDGLIHL; listed as Homo sapiens)” was run?
Answer: over-presentation
